This is an account of results in patent US20260248946A1 (TUOJIE BIOTECH SHANGHAI, published 2026).

Chains of the proteins cited; added tags and fusions are not shown. Residues count along the entry.
UniProt P40259, residues 29-159: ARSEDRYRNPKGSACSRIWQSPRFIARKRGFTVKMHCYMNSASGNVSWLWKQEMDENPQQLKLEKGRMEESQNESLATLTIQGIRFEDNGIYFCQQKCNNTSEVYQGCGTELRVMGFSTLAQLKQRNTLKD

The target in experiment [1] is fusion protein of human CD79B extracellular domain (ECD) and His tag (human) (UniProt P40259). In words: ELISA, FACS, SPR and other assays.
Experiment [2] has as its target human CD79B antigen (coated in the ELISA of the anti-human CD79B mouse antibodies) (human) (UniProt P40259). In words: ELISA, purified mouse antibody on coated antigen.
Experiment [3] shares this target. Description: ELISA on coated human CD79B antigen.

Where a chain is given by its changes, count along the chain named. Results are given in words; binding and its absence hold for the method and conditions named. Some results given as binding are weak or reduced against the parent protein; the word gives no strength.

B1: hAb017-10 (antibody, human IgG1, kappa, V domains shown)
VH: EVQLVQSGAEVKKPGASVKVSCKASGYTFTTYGINWVKQAPGQGLEWIGEIYPRSGNIYYNEKFKGKATLTADKSTSTAYMELRSLRSDDTAVYYCARGSDYDGDFAYWGQGTLVTVSS
VL: DVVMTQTPLSLPVTPGEPASISCRSSQSIVHHDGNTYLEWYLQKPGQSPQLLIYKVSNRFSGVPDRFSGSGSGTDFTLKISRVEAEDVGVYYCFQGSHVPWTFGGGTKVEIKR
notes: Humanized antibody; also called hAb017-10 humanized antibody
B1: the binding result in experiment [1] is “binds”.

B2: mAb015 (antibody, V domains shown)
VH: QVQLQQSGAELARPGASVKLSCKASGSSFTSYGINWVKQRTGQGLEWIGEIFPRSGNTYYNEKFEGKATLTADKSSSTAYMELRSLTSEDSAVYFCAKGDLGDFDYWGQGTTLTVSS
VL: DFLMTQTPLSLPVRLGDQASISCRSSQSIVHSDGNTYFEWYLQKPGQSPKLLIYKVSNRFSGVPDRFSGSGSGTDFTLKISRVEAEDLGVYYCFQGSHVPWTFGGGTKLEIK
notes: Mouse monoclonal antibody from hybridoma; also called 83B2G2
On to B2, for which the binding result in experiment [2] and in experiment [3] was “binds” in each case.

B3: mAb017 (antibody, V domains shown)
VH: QVQLQQSGAELARPGASVKLSCKASGYTFTTYGINWVKQRTGQGLEWIGEIYPRSGNIYYNEKFKGKATLTADKSSSTAYMELRSLTSEDSAVYFCARGSDYDGDFAYWGQGTLVTVSA
VL: B2 VL with F2V, R14S, S32H, F38L, K108Q
notes: Mouse monoclonal antibody from hybridoma; also called 86F11F6
Regarding B3, the binding entry in experiment [2] and in experiment [3] was “binds” each time.
